Data taken from US20100172907A1.
Results are given in words; binding and its absence hold for the method and conditions named. Binding calls can cover weak binding; strength is not graded here.

Key:
[1] = biological target: amyloid plaques in the brain of APP/PS2 double transgenic mice; assay: in vivo plaque decoration after 3 x 2 mg i.v., confocal microscopy
[2] = biological target: amyloid plaques in the brain of APP/PS2 double transgenic mice; assay: in vivo plaque decoration, 2 mg i.v. at day 0, 3 and 6, sacrifice at day 9; confocal microscopy of cryostat sections, goat anti-human IgG-Cy3, counterstain BAP-2-Alexa488

binding [1]: binds
binding [2]: binds
B1: MS-R #7.9.H7 IgG1 (antibody, V domains shown)
VH: QVELVESGGGLVQPGGSLRLSCAASGFTFSSYAMSWVRQAPGKGLEWVSAINASGTRTYYADSVKGRFTISRDNSKNTLYLQMNSLRAEDTAVYYCARGKGNTHKPYGYVRYFDVWGQGTLVTVSS
VL: DIVLTQSPATLSLSPGERATLSCRASQSVSSSYLAWYQQKPGQAPRLLIYGASSRATGVPARFSGSGSGTDFTLTISSLEPEDFATYYCLQIYNMPITFGQGTKVEIKR
